From US20210230287A1
Results are given in words; binding and its absence hold for the method and conditions named. Some results given as binding are weak or reduced against the parent protein; the word gives no strength. One block for each binder: values may come before it.

By UniProt entry, the sequences of proteins in these tests, tags left out. Where a name states a change or a piece, a line headed by the entry shows the natural chain unless it says otherwise. Residues count along the entry.
UniProt Q07011: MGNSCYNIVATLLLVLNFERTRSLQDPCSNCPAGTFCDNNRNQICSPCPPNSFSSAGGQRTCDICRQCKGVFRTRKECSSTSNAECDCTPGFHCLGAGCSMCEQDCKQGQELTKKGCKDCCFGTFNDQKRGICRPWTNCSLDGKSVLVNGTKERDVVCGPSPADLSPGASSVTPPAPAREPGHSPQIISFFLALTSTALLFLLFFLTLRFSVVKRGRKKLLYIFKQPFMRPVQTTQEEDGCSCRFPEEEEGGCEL
UniProt P20334, residues 24-256: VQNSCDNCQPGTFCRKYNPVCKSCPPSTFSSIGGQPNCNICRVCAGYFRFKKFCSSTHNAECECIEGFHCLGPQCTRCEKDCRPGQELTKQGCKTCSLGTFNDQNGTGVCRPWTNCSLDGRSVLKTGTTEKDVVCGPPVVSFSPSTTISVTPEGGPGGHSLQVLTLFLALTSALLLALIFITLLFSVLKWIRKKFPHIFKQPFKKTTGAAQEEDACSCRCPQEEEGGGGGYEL

What was measured:
[1] = target: human 4-1BB, full-length, on cells (human) (UniProt Q07011); assay: flow cytometry on activated human T cells (PMA and ionomycin, 48 h), PE goat anti-human IgG Fc, MFI
[2] = target: human 4-1BB protein (coated on ELISA plates) (human) (UniProt Q07011); assay: competition ELISA on plate-coated human 4-1BB; competitor: biotinylated BMK4, detected with streptavidin-HRP, OD450-OD540
[3] = target: human 4-1BB protein (coated on ELISA plates) (human) (UniProt Q07011); assay: ELISA, cross-family test
[4] = target: human 4-1BB, full-length, on cells (human) (UniProt Q07011); assay: ligand competition by flow cytometry on human 4-1BB-expressing CHO-K1 cells; blocked ligand: human 4-1BBL-His at constant concentration, detected with anti-His-biotin and PE-streptavidin, MFI
[5] = target: human 4-1BB protein (coated on ELISA plates) (human) (UniProt Q07011); assay: ELISA on plate-coated antigen, HRP goat anti-human IgG Fc, OD450-OD540; antibody concentration not given
[6] = target: mouse 4-1BB, full-length, on cells (mouse) (UniProt P20334); assay: flow cytometry on murine 4-1BB CHO-K1 cells
[7] = target: mouse 4-1BB, full-length, on cells (mouse) (UniProt P20334); assay: flow cytometry on murine 4-1BB-expressing CHO-K1 cells, PE goat anti-human IgG Fc, MFI
[8] = target: human 4-1BB, full-length, on cells (human) (UniProt Q07011); assay: flow cytometry on PMA/ionomycin-activated human T cells
[9] = target: human 4-1BB, full-length, on cells (human) (UniProt Q07011); assay: flow cytometry on human 4-1BB-expressing CHO-K1 cells, PE goat anti-human IgG Fc, MFI
[10] = target: human 4-1BB, full-length, on cells (human) (UniProt Q07011); assay: flow cytometry on human 4-1BB CHO-K1 cells

binding [1]: binds
binding [2]: binds
binding [3]: binds
binding [4]: binds
binding [5]: binds
binding [6]: binds
binding [7]: binds
binding [8]: binds
binding [9]: binds
binding [10]: binds
B1: 2.19.8-u1-3-hIgG1L (antibody, V domains shown)
VH: QVQLVESGGGLVKPGGSLRLSCAASGFTFSDYFMSWIRQAPGKGLEWVSYISNAGSSKYYADSVKGRFTISRDNAKNSLYLQMNSLRAEDTAVYYCVRDPYSGSYSGWFDPWGQGTLVTVSS
VL: SYDLTQPPSVSVSPGQTASITCSGDDLGDKYTSWYQQKPGQSPVLVVYQDHKRPSGIPERFSGSNSGNTATLTISGTQAMDEADYYCQAWDKGIVVFGGGTKLTVL

binding [1]: binds
binding [2]: binds
binding [3]: binds
binding [4]: binds
binding [5]: binds
binding [6]: binds
binding [7]: binds
binding [8]: binds
binding [9]: binds
binding [10]: binds
B2: 2.19.8-u1-3-hIgG4L (antibody, V domains shown)
VH: B1 VH
VL: B1 VL
